These are yes or no findings as the source states them, for the method shown. In cells and extracts the contact can be indirect. Some entries that bind do so weakly or less than the wild type. For part of these data: Tags and fused reporters may be left off the sequences shown.
T1: Vap33 (Drosophila (endogenous in larval tissues)) (UniProt Q9W4N8)
T1 sequence: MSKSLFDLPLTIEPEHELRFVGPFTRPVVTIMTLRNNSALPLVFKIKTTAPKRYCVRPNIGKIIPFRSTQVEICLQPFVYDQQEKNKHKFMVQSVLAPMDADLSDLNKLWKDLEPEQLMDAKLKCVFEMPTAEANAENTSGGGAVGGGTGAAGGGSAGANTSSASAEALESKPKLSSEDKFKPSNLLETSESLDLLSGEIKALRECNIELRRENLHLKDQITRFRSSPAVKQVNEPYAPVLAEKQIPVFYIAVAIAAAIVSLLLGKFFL

T2: atypical protein kinase C (aPKC) (Drosophila (endogenous in larval tissues)) (UniProt A1Z9X0)
T2 sequence: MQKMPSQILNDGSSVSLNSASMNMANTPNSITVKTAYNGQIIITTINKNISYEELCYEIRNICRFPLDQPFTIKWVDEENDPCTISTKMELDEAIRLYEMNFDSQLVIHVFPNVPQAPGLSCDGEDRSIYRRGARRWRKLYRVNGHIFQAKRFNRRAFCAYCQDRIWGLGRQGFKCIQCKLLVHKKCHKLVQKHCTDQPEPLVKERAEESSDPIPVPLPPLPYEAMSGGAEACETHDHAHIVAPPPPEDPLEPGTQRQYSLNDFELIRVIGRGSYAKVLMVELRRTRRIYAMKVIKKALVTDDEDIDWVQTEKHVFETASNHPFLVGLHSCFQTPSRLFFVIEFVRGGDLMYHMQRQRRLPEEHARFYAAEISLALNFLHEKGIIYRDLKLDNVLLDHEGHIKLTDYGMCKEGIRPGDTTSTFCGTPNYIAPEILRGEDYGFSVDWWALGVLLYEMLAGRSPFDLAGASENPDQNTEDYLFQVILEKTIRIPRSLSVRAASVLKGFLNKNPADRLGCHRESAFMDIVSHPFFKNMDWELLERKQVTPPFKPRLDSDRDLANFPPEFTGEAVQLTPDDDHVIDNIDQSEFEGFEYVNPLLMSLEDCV

T3: Git-RFP (Drosophila) (UniProt Q95RG8)
T3 sequence: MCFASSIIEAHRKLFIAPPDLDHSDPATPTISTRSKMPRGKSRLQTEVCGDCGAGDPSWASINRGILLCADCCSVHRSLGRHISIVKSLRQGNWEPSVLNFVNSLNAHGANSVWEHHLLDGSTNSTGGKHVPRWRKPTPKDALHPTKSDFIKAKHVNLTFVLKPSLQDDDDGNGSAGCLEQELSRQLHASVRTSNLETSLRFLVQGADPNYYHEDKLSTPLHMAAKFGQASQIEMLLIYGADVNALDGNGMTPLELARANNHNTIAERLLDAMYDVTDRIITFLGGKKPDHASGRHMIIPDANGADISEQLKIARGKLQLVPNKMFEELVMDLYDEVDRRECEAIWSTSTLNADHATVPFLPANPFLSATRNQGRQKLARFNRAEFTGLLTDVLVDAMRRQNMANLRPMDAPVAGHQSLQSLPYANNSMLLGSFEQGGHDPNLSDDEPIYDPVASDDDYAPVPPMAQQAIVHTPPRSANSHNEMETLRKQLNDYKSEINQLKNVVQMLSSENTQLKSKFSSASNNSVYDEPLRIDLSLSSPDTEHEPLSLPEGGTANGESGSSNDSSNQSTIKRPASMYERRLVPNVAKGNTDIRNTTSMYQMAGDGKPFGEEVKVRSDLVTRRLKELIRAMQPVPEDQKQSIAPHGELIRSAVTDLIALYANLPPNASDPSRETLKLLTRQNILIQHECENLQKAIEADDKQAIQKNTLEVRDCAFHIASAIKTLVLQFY


Tests used:
Assay in all cases: proximity ligation; in situ Duolink PLA in fixed third-instar larval tissues (eye-antennal discs, salivary gland, brain) with pairs of mouse and rabbit primary antibodies; single-antibody negative controls
[1] = molecular target: T1, Vap33 (Drosophila (endogenous in larval tissues))
[2] = molecular target: T2, atypical protein kinase C (aPKC) (Drosophila (endogenous in larval tissues))
Git-RFP (Drosophila) = molecular target: T3, Git-RFP (Drosophila)

binding [1]	binding [2]	binding (Git-RFP (Drosophila))	Binder
binds			Git-RFP (protein, UniProt Q95RG8 1-731) MCFASSIIEAHRKLFIAPPDLDHSDPATPTISTRSKMPRGKSRLQTEVCGDCGAGDPSWASINRGILLCADCCSVHRSLGRHISIVKSLRQGNWEPSVLNFVNSLNAHGANSVWEHHLLDGSTNSTGGKHVPRWRKPTPKDALHPTKSDFIKAKHVNLTFVLKPSLQDDDDGNGSAGCLEQELSRQLHASVRTSNLETSLRFLVQGADPNYYHEDKLSTPLHMAAKFGQASQIEMLLIYGADVNALDGNGMTPLELARANNHNTIAERLLDAMYDVTDRIITFLGGKKPDHASGRHMIIPDANGADISEQLKIARGKLQLVPNKMFEELVMDLYDEVDRRECEAIWSTSTLNADHATVPFLPANPFLSATRNQGRQKLARFNRAEFTGLLTDVLVDAMRRQNMANLRPMDAPVAGHQSLQSLPYANNSMLLGSFEQGGHDPNLSDDEPIYDPVASDDDYAPVPPMAQQAIVHTPPRSANSHNEMETLRKQLNDYKSEINQLKNVVQMLSSENTQLKSKFSSASNNSVYDEPLRIDLSLSSPDTEHEPLSLPEGGTANGESGSSNDSSNQSTIKRPASMYERRLVPNVAKGNTDIRNTTSMYQMAGDGKPFGEEVKVRSDLVTRRLKELIRAMQPVPEDQKQSIAPHGELIRSAVTDLIALYANLPPNASDPSRETLKLLTRQNILIQHECENLQKAIEADDKQAIQKNTLEVRDCAFHIASAIKTLVLQFY
	binds	binds	Lgl-GFP (endogenously GFP-tagged Lgl) (protein, UniProt P08111 1-1161) MLKFIRGKGQQPSADRHRLQKDLFAYRKTAQHGFPHKPSALAYDPVLKLMAIGTQTGALKVFGQPGVELYGQHTLLNNSASELNVQLLEWVYGTGRILSLTAANQLILWEPVGATLLPIKTLPFDGKLKKVSSLCCSLSKDLLWIGTEGGNIYQLDLHTFTIKEPVIYHDVVLEQVPPAYKLNPGAIESIRQLPNSPSKLLVAYNRGLCVLWDFESASVQRAYIAPGHGQSVGLTVNFEGSEFTWYHADGSYATWSIDNPEPPSNVNYVPYGPDPCKSINRLYKGKRRSNDVIVFSGGMPRSAYGDHNCVSVHASDGHKVCLDFTSKVIDFFVTFENNRDVAEVLVVLLEEELCAYDLTDPNICAIKAPYLHSVHASAVTCNYLASEVVQSVYESILRAGDEQDIDYSNISWPITGGTLPDNLEESVEEDATKLYEILLTGHEDGSVKFWDCTGVLLKPIYNFKTSSIFGSESDFRDDAAADMSAEQVDEGEPPFRKSGLFDPYSDDPRLAVKKIAFCPKTGQLIVGGTAGQIVIADFIDLPEKVSLKYISMNLVSDRDGFVWKGHDQLNVRSNLLDGEAIPTTERGVNISGVLQVLPPASITCMALEASWGLVSGGTAHGLVLFDFKNFVPVFHRCTLNPNDLTGAGEQLSRRKSFKKSLRESFRKLRKGRSTRTNQSNQVPTTLEARPVERQIEARCADDGLGSMVRCLLFAKTYVTNVNITSPTLWSATNASTVSVFLLHLPPAQTAATAVPSASGNAPPHMPRRISAQLAKEIQLKHRAPVVGISIFDQAGSPVDQLNAGENGSPPHRVLIASEEQFKVFSLPQLKPINKYKLTANEGARIRRIHFGSFSCRISPETLQSMHGCSPTKSTRSHGDGEADPNISGSLAVSRGDVYNETALICLTNMGDIMVLSVPELKRQLNAAAVRREDINGVSSLCFTNSGEALYMMSSSELQRIALATSRVVQPTGVVPVEPLENEESVLEENDAENNKETYACDEVVNTYEIKNPSGISICTRPAEENVGRNSVQQVNGVNISNSPNQANETISSSIGDITVDSVRDHLNMTTTTLCSINTEETIGRLSVLSTQTNKASTTVNMSEIPNINISNLEDLESKRNTTETSTSSVVIKSIITNISHEKTNGDNKIGTPKTAPEESQF

Source: article PMC10911279
